No constants are given. Whether binding was seen depends on the method and setting. Binding seen in cells or lysates may run through a third protein. Some results given as binding are weak or reduced against the parent protein; the word gives no strength.
Experiments:
[1] = biological target: T1, PGAM5L (the long form of PGAM5) (human (endogenous in HCT116, SW480, Hela, A549)) (UniProt Q96HS1); assay: co-IP; SW480, Hela and A549 cell lines (Supplementary Figure S1E); the precipitating antibody and the treatment are not told in the text shown
T1 sequence: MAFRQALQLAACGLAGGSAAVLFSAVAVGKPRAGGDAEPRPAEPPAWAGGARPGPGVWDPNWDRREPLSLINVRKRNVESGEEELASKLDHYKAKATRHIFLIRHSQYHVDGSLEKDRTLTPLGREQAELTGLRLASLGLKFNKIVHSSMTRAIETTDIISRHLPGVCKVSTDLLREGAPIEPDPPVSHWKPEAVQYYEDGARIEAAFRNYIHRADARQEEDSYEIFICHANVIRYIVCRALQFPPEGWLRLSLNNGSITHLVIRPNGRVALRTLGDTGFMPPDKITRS

Protein sequences, listed by entry. Tags and fused reporters are not part of them.
UniProt Q07812: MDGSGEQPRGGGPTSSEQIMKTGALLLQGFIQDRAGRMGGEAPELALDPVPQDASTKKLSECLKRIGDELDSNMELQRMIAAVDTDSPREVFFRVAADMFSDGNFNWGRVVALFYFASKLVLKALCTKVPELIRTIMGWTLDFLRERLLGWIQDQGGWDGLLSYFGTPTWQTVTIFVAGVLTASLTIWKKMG

[2] = biological target: T1, PGAM5L (the long form of PGAM5) (human (endogenous in HCT116, SW480, Hela, A549)); assay: co-IP; IP with anti-PGAM5 antibody from extracts of HCT116 WT cells; 1 μM arenobufagin 12 h (also with 20 μM iMAC2) or staurosporine; blots for Drp1 and Bax
[3] = biological target: T1, PGAM5L (the long form of PGAM5) (human (endogenous in HCT116, SW480, Hela, A549)); assay: co-IP; IP with anti-PGAM5 antibody from extracts of HCT116 Bax+/+ xenograft tumor tissue of mice treated with arenobufagin or cisplatin; Triton X-100 extraction buffer; blots for Drp1 and Bax
[4] = biological target: T1, PGAM5L (the long form of PGAM5) (human (endogenous in HCT116, SW480, Hela, A549)); assay: co-IP; IP with anti-PGAM5 antibody from extracts of HCT116 Bax−/− cells transfected with HA-Bax; 1 μM arenobufagin 12 h; blots with Drp1 and Bax antibody

Substance	binding [1]	binding [2]	binding [3]	binding [4]
Bax (from UniProt Q07812 1-192)	binds	binds	binds	
HA-Bax (from UniProt Q07812 1-192)				binds
